Experimental findings from article doi:10.1101/2024.10.27.620478 are described below.

These are yes or no findings as the source states them, for the method shown. Binding seen in cells or lysates may run through a third protein. Some entries that bind do so weakly or less than the wild type.

This assay deals with T1, BAG-1 (human (endogenous in SH-SY5Y)) (UniProt Q99933).
T1 sequence: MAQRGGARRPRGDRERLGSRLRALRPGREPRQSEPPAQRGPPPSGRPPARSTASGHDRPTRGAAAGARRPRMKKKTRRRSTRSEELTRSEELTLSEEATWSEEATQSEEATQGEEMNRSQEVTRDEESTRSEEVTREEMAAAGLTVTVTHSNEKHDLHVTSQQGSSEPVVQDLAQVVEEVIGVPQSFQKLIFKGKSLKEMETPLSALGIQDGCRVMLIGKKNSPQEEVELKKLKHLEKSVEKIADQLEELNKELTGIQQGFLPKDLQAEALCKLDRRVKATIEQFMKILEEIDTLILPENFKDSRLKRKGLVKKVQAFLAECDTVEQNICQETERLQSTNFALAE
Kind of assay: co-IP.

B1: EVA1-C (protein, UniProt P58658 49-441)
chain: LTDFSGYLTKLLQNHTTYACDGDYLNLQCPRHSTISVQSAFYGQDYQMCSSQKPASQREDSLTCVAATTFQKVLDECQNQRACHLLVNSRVFGPDLCPGSSKYLLVSFKCQPNELKNKTVCEDQELKLHCHESKFLNIYSATYGRRTQERDICSSKAERLPPFDCLSYSALQVLSRRCYGKQRCKIIVNNHHFGSPCLPGVKKYLTVTYACVPKNILTAIDPAIANLKPSLKQKDGEYGINFDPSGSKVLRKDGILVSNSLAAFAYIRAHPERAALLFVSSVCIGLALTLCALVIRESCAKDFRDLQLGREQLVPGSDKVEEDSEDEEEEEDPSESDFPGELSGFCRTSYPIYSSIEAAELAERIERREQIIQEIWMNSGLDTSLPRNMGQFY
With B1, the binding entry was “binds”.
